The name of at least one read-out is uncertain.
Target: T1, F X (Homo sapiens, UniProt P00742)
T1 construct: from tissue; host or cells: human plasma
Experiment: Coagulation factor assay (Biggs): Factor X
Type: biochemical
Details: mean of 3 experiments; control 100
Description: The effect of U.S.P. grade sodium bisulfite on blood coagulation factors is evaluated by standard procedures (Biggs) and the results are shown in Table III below.
References for PT, PTT, and assays of all the coagulation factors can be found in a standard textbook, entitled "Human Blood Coagulation, Haemostasis and Thrombosis", edited by Rosemary Biggs, published by Blackwell Scientific Publications, Oxford, England (2nd edition), pages 670-705, 1976.

Amino acid sequences for entries named in this document (tags omitted). Residues count along the entry.
UniProt P00742, 41-488: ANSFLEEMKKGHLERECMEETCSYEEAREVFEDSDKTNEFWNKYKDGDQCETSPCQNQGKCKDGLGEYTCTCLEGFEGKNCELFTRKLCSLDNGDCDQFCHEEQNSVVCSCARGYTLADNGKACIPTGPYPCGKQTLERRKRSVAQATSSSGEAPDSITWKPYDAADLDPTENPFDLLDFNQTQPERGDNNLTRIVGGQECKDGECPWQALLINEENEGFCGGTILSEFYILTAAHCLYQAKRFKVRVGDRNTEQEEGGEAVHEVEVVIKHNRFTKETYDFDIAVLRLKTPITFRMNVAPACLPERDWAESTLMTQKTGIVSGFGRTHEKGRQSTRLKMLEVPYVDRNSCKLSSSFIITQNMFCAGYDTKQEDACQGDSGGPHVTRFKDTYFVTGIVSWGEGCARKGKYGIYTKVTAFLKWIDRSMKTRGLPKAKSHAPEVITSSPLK

Structure (SMILES)	Factor X (%)
C[N+](C)(C)C [Tetramethyl-ammonium bisulfite]	10%
C[N+](C)(C)C [Tetramethyl-ammonium sulfite]	25%

— patent publication EP0043274A2, “Antithrombotic treatment” (priority 1980, dated 1982)
